The source of these data is the supplement of paper PMC12819154, “High-throughput peptide-centric local stability assay extends protein–ligand identification to membrane proteins, tissues and bacteria” (Nature Structural & Molecular Biology, 2025).

The chains behind the UniProt entries cited, without tags or fusion partners. Where a name states a change or a piece, a line headed by the entry shows the natural chain unless it says otherwise.
UniProt Q6VN19, whole entry: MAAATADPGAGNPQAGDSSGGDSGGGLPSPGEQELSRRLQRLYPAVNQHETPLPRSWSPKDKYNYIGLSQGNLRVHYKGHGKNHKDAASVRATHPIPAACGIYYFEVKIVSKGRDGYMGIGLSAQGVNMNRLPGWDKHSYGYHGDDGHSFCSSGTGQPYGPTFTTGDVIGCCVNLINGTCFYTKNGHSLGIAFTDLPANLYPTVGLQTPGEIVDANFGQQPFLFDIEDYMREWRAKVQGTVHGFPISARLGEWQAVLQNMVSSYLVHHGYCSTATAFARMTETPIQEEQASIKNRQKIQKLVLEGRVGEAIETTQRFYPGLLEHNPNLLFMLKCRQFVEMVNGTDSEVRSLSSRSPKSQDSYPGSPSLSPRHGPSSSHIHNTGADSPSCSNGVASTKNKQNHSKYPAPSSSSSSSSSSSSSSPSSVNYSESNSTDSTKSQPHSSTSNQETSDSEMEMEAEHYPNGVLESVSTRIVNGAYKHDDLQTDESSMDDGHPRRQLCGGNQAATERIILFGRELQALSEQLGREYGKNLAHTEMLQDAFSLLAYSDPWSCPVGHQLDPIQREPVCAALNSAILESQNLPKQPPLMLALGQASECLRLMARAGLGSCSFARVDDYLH
UniProt Q6KAQ7: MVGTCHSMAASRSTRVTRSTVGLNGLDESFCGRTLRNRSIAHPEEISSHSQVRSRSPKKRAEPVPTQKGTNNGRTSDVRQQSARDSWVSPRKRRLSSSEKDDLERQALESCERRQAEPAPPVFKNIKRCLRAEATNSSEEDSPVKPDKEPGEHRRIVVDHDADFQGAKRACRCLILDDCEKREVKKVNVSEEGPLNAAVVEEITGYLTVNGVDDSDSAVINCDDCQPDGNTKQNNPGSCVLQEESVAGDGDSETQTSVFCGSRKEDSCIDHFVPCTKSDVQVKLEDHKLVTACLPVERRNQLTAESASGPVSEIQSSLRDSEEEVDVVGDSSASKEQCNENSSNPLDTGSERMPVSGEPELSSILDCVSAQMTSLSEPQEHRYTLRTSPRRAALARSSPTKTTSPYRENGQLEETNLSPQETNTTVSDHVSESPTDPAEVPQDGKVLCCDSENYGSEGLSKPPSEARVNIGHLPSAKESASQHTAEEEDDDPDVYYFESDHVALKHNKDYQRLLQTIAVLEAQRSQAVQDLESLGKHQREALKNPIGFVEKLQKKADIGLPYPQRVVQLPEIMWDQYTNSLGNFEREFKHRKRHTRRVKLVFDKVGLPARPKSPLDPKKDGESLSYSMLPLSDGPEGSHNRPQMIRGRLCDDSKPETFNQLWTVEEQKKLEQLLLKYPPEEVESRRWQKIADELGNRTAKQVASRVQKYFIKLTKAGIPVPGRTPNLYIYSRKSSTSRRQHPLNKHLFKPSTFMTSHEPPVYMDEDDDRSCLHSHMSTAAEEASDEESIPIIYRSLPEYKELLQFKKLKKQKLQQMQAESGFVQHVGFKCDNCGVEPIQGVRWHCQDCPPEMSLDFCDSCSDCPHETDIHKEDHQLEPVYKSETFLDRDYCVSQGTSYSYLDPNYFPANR
UniProt Q6P5G6: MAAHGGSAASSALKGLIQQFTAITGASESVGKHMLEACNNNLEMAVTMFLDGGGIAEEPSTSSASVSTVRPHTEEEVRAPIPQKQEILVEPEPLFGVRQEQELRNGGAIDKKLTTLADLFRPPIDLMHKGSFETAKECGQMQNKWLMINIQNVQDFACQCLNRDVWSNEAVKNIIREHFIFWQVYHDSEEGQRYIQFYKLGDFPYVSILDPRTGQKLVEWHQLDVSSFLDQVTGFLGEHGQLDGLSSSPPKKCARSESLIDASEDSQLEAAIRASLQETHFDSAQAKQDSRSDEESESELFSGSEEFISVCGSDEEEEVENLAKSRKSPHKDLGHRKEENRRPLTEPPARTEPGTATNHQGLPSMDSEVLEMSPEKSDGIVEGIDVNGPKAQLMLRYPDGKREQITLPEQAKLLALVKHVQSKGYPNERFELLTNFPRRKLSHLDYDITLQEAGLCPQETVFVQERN
UniProt Q6A028: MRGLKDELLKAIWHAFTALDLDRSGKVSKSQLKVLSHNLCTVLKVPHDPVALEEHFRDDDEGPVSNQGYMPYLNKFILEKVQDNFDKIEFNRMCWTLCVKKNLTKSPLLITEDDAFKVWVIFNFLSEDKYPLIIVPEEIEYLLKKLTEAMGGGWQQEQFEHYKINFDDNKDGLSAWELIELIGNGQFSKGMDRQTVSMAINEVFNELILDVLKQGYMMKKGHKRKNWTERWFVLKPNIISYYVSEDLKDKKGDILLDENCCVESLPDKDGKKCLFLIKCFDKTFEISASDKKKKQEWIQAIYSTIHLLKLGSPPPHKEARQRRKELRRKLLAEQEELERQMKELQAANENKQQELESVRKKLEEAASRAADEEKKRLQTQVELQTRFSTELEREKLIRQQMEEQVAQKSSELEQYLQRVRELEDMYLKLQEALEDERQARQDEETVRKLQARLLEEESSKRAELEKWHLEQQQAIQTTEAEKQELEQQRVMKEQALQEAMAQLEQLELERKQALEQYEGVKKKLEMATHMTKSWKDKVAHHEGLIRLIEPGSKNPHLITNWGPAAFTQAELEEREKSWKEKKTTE
UniProt Q6NXL6: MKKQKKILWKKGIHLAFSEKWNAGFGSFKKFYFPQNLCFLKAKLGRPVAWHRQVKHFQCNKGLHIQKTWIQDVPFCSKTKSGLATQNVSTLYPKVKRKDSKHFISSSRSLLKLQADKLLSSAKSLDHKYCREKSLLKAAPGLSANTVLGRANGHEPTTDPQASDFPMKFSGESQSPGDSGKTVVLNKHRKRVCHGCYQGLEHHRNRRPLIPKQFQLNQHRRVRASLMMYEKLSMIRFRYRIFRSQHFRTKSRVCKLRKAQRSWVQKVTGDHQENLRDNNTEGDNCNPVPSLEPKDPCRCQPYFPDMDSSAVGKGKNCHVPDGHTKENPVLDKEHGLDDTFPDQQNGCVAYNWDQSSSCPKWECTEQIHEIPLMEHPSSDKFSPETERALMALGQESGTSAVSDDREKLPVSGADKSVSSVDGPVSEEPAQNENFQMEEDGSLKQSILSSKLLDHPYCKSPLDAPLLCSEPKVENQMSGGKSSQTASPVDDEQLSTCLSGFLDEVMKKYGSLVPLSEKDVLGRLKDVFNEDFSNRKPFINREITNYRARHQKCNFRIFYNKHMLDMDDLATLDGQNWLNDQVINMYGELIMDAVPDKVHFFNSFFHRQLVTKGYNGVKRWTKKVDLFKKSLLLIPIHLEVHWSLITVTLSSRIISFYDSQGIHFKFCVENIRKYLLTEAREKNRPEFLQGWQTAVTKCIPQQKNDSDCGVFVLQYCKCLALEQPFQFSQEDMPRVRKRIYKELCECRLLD
UniProt Q6PFD9: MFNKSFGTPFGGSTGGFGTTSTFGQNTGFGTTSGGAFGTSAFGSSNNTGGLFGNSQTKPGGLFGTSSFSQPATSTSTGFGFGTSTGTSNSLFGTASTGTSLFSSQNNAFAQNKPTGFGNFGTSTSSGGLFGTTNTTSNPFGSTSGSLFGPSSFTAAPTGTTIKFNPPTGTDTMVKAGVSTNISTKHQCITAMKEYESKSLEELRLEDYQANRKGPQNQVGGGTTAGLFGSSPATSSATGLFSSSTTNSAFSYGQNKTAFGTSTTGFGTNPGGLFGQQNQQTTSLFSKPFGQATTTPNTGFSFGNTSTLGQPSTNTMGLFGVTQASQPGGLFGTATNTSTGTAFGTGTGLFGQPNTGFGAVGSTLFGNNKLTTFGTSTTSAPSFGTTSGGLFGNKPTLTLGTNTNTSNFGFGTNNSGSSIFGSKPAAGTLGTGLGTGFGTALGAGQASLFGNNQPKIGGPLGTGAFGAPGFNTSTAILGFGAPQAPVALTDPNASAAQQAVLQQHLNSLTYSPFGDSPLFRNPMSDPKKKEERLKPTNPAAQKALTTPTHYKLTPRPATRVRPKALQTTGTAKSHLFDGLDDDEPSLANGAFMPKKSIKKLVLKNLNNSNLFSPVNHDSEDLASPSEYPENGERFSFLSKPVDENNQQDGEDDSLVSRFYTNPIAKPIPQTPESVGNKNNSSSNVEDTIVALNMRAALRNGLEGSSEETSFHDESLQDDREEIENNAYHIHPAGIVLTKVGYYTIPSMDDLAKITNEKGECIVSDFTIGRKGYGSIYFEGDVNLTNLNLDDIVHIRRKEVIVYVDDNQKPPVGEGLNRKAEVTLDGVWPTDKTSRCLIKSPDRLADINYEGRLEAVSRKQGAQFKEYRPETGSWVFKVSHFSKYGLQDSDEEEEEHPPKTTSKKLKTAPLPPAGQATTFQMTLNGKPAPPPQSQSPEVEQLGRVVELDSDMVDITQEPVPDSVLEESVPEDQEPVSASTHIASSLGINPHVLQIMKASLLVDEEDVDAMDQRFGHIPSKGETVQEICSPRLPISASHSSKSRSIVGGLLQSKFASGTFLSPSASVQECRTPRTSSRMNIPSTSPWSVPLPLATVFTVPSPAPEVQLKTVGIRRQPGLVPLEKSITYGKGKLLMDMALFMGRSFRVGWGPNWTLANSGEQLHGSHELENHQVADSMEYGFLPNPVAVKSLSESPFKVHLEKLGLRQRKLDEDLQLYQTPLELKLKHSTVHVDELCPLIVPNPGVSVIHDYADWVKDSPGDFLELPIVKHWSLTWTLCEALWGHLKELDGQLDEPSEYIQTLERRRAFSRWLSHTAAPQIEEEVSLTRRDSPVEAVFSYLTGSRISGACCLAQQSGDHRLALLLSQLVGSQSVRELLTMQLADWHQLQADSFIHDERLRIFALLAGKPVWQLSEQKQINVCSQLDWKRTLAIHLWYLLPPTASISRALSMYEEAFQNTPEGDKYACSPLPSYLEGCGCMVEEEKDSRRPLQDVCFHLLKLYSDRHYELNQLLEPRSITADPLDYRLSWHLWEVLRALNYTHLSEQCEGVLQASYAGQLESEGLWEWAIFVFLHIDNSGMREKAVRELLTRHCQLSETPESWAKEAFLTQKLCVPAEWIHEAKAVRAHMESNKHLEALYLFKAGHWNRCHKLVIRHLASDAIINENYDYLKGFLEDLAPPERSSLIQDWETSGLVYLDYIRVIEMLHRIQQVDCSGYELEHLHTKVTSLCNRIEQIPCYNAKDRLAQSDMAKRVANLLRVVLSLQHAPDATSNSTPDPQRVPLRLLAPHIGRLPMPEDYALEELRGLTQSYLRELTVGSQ
UniProt Q6NXK5: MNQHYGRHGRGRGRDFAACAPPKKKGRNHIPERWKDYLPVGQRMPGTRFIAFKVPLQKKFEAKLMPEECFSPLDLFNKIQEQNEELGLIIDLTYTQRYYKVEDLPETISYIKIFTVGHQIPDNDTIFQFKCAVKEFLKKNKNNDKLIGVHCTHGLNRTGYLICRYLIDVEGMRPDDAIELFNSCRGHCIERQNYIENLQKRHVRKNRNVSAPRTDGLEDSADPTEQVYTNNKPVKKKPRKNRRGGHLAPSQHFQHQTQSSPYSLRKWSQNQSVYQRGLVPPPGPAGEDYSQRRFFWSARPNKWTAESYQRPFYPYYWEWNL
UniProt Q6SP97: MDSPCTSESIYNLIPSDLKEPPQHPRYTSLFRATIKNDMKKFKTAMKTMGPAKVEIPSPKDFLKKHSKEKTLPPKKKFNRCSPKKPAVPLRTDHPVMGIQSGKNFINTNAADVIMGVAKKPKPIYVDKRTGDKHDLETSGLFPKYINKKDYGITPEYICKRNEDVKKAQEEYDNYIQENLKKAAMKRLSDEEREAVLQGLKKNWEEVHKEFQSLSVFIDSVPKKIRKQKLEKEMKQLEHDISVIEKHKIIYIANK
UniProt Q6IRU5: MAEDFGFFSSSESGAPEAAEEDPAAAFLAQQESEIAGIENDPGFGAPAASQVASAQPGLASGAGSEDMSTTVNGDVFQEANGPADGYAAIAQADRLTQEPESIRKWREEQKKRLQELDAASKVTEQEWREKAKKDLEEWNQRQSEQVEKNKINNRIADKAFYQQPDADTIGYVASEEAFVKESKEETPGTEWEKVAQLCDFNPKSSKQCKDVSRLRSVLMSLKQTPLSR
UniProt Q6P5G3, whole entry: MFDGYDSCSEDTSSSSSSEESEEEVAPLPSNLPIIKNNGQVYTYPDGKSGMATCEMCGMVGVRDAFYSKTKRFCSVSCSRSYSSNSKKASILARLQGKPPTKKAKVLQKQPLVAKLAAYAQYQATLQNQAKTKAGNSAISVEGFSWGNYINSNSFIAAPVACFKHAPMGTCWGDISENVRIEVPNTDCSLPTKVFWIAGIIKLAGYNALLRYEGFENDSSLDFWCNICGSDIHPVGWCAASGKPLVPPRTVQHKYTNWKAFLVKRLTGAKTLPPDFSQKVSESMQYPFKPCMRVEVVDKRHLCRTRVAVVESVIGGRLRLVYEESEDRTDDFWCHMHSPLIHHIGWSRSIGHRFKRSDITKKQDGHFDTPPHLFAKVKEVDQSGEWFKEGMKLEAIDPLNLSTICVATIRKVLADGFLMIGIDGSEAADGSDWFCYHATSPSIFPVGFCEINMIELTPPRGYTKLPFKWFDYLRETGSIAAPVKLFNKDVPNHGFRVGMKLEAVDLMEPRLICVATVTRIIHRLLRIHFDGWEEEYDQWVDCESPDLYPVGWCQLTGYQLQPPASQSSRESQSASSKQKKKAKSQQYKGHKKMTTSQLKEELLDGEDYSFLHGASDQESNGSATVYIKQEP

The other results are listed elsewhere or left out. Most entries show no effect beyond the scatter of the controls.

Compound in this assay: CN[C@@H]1C[C@H]2O[C@@](C)([C@@H]1OC)n1c3ccccc3c3c4c(c5c6ccccc6n2c5c31)C(=O)NC4 [staurosporine]
The assay is described as follows: log2 fold change of tryptic peptide abundance, ligand vs vehicle (limited proteolysis) (log2 ratio); higher = more trypsin-susceptible (destabilized). The conditions noted are these: ligand concentration: 20 uM; sample: mouse liver crude lysate; replicate design: treated separately.
Take “UniProt Q6PFQ7 (peptide sequence: EGPLFIHR, peptide start residue: 569)”: the log2 fold change is -0.0369.
In the case of “UniProt Q6A068 (peptide sequence: KKESDLPSAILQTSGVSEFTK, peptide start residue: 270)” it was -0.242.
Next, “UniProt Q6T264 (peptide sequence: QHQLLLDQQK, peptide start residue: 629)”: -0.556.
In the case of “UniProt Q6VN19 (peptide sequence: ELQALSEQLGR, peptide start residue: 517)” it was 0.265; in that of “UniProt Q6P9Z1 (peptide sequence: IHETIESINQLK, peptide start residue: 440)”, -0.121; in that of “UniProt Q6KAQ7 (peptide sequence: SIAHPEEISSHSQVR, peptide start residue: 39)”, -0.255.
With “UniProt Q6PEE2 (peptide sequence: QQRPPGGNKPQQHGDHQPGSAK, peptide start residue: 197)”, the log2 fold change is 0.395.
Take “UniProt Q6NZM9 (peptide sequence: DQPVELLNPAR, peptide start residue: 14)”: the log2 fold change is -0.505.
“UniProt Q6P5G6 (peptide sequence: AAHGGSAASSALK, peptide start residue: 2)”: the log2 fold change stood at 0.405.
Next, “UniProt Q6A028 (peptide sequence: KQALEQYEGVK, peptide start residue: 511)”: -0.814; “UniProt Q6NXL6 (peptide sequence: FSGESQSPGDSGK, peptide start residue: 169)”: 0.614.
Next, “UniProt Q69ZR2 (peptide sequence: KLGPDSSVR, peptide start residue: 1468)”: -0.247; “UniProt Q6PGB8 (peptide sequence: IMAQIER, peptide start residue: 899)”: 0.25.
Turning to “UniProt Q6P5B0 (peptide sequence: LHNELQSGTLSLGK, peptide start residue: 58)”, the log2 fold change was -0.163.
In the case of “UniProt Q6R3M4 (peptide sequence: GSLSCPLHASR, peptide start residue: 529)”, the log2 fold change came to 0.419.
With “UniProt Q6P8I6 (peptide sequence: AQEDEWR, peptide start residue: 82)”, the log2 fold change came out at 0.299.
Take “UniProt Q6P4T2 (peptide sequence: LYDLNHNEIGELIR, peptide start residue: 1153)”: the log2 fold change was 0.323.
In the case of “UniProt Q6PGF3 (peptide sequence: SLDEPALK, peptide start residue: 400)”, the log2 fold change is 0.134.
As for “UniProt Q6NZB0 (peptide sequence: RQREEEIEAQEK, peptide start residue: 190)”, the log2 fold change turned out to be 0.573.
As to “UniProt Q6PFD9 (peptide sequence: EYRPETGSWVFK, peptide start residue: 865)”, the log2 fold change was -0.355.
As to “UniProt Q6NXK5 (peptide sequence: WKDYLPVGQR, peptide start residue: 34)”, the log2 fold change came to 0.4.
“UniProt Q6EJB6 (peptide sequence: EMKPLTNPDASGGKK, peptide start residue: 523)”: the log2 fold change was -0.321.
As for “UniProt Q6PDG5 (peptide sequence: RGHREEEQEDLTK, peptide start residue: 329)”, the log2 fold change turned out to be 0.357.
As to “UniProt Q6SP97 (peptide sequence: EAVLQGLKK, peptide start residue: 194)”, the log2 fold change amounted to 0.127.
In the case of “UniProt Q6PEV3 (peptide sequence: AAAPRPPGSAASGRPHDDTDSNR, peptide start residue: 120)” it was 0.477; in that of “UniProt Q6P7W2 (peptide sequence: HSLVGPQQIGGRPAPVRR, peptide start residue: 143)”, -0.197.
In the case of “UniProt Q6P1C1 (peptide sequence: FKEHEDCTLVLHKV, peptide start residue: 476)” it was -0.131.
In the case of “UniProt Q6PFY1 (peptide sequence: EYGQALQK, peptide start residue: 52)” it was 0.147.
As to “UniProt Q6NZP2 (peptide sequence: VSTMVPSVYK, peptide start residue: 224)”, the log2 fold change amounted to 0.299.
In the case of “UniProt Q6NXY1 (peptide sequence: ILAAGGK, peptide start residue: 228)” it was -0.217; in that of “UniProt Q6IRU5 (peptide sequence: LQELDAASKVTEQEWR, peptide start residue: 114)”, -0.189.
Next, “UniProt Q6P9Q4 (peptide sequence: KPVSPPSPK, peptide start residue: 521)”: -0.399; “UniProt Q6Q6R3 (peptide sequence: FCLKCER, peptide start residue: 28)”: -0.135; “UniProt Q6P5G3 (peptide sequence: NNGQVYTYPDGK, peptide start residue: 37)”: -0.383.
In the case of “UniProt Q6NVG5 (peptide sequence: ILYNLIVIR, peptide start residue: 69)”, the log2 fold change came to 0.361.
In the case of “UniProt Q6PAR0 (peptide sequence: FIQSCPIIR, peptide start residue: 66)” it was -0.468.
